Test results taken from PubChem BioAssay AID328 (DTP/NCI, 2004).
The list does not hold the whole screen: it gathers tests that were run many times, whatever their T/C, doses with no T/C, and many T/C values between a quarter and a half above the control. Other doses and runs of a compound stand elsewhere. T/C is the treated group as % of the vehicle group. Some entries give survivors of the animals treated and no T/C: the source files T/C as zero there, which appears to mark a toxic dose or a test without result, not a measured value. Some doses without a T/C left all or most animals alive at the check, yet need not have been tolerated: the source hardly ever lists a survival T/C far under the control, and the zero likely stands for such cases as well. Counts of survivors are from the toxicity check (mostly the fifth day) where no day follows; animals may have died later. Schedule codes are those of the source, read here as Q, the interval in days (D) or hours (H), X, the number of doses. Some entries were tested several times; the values are given in rising order. Marks such as (2×) count equal records among those shown. Where survival is the endpoint, the PubChem record calls one and a half times the control and up active, and a quarter to a half above the control has no call in these data; cut-offs in other NCI protocols can differ. Some T/C values carry the count of animals alive at the toxicity check (mostly the fifth day); without a count, all were alive then.

Tested on: BDF1 mice, P388 leukemia ip, median survival T/C
Assay: NCI In Vivo Anticancer Drug Screen. Data for tumor model P388 Leukemia (intraperitoneal) in B6D2F1 (BDF1) mice
Settings: T/C endpoint: median survival time, higher T/C = longer survival
Summary of the method: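 Read-out is survival of treated animals expressed relative to the vehicle group, as a T/C ratio.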

## COc1cccc2c1C(=O)c1c(O)c3c(c(O)c1C2=O)C[C@@](O)(/C(C)=N/NC(=O)c1ccccc1)C[C@@H]3OC1CC(N)C(O)C(C)O1 (stereo partly specified)
dose: 0.25 mg/kg/injection, schedule: Q01DX009 (ip), vehicle: water, evaluated on day 28
  T/C: 100 % of control
dose: 0.25 mg/kg/injection, schedule: Q01DX009 (ip), vehicle: water, evaluated on day 30
  T/C: 120, 140, 144 (2×), 167 % of control
dose: 0.25 mg/kg/injection, schedule: Q01DX009 (ip), vehicle: water, evaluated on day 31
  T/C: 134 % of control
dose: 0.25 mg/kg/injection, schedule: Q01DX009 (ip), vehicle: water, evaluated on day 32
  T/C: 114 and 151 % of control
dose: 0.25 mg/kg/injection, schedule: Q01DX009 (ip), vehicle: water
  survivor count: 5 of 6
dose: 0.5 mg/kg/injection, schedule: Q01DX009 (ip), vehicle: water, evaluated on day 28
  T/C: 102 % of control
dose: 0.5 mg/kg/injection, schedule: Q01DX009 (ip), vehicle: water, evaluated on day 30
  T/C: 156, 160, 162, 180 % of control
dose: 0.5 mg/kg/injection, schedule: Q01DX009 (ip), vehicle: water, evaluated on day 31
  T/C: 152 % of control
dose: 0.5 mg/kg/injection, schedule: Q01DX009 (ip), vehicle: water, evaluated on day 32
  T/C: 122 and 151 % of control
dose: 0.5 mg/kg/injection, schedule: Q01DX009 (ip), vehicle: water, evaluated on day 33
  T/C: 131 % of control
dose: 0.5 mg/kg/injection, schedule: Q01DX009 (ip), vehicle: water, evaluated on day 60
  T/C: 134 % of control
dose: 0.5 mg/kg/injection, schedule: Q01DX009 (ip), vehicle: water
  survivor count: 6 of 6
dose: 0.75 mg/kg/injection, schedule: Q01DX009 (ip), vehicle: water
  T/C: 140 % of control
dose: 1.0 mg/kg/injection, schedule: Q01DX009 (ip), vehicle: water, evaluated on day 28
  T/C: 109 % of control [5 of 6 alive]
dose: 1.0 mg/kg/injection, schedule: Q01DX009 (ip), vehicle: water, evaluated on day 30
  T/C: 135, 166, 171, 182, 189 % of control
dose: 1.0 mg/kg/injection, schedule: Q01DX009 (ip), vehicle: water, evaluated on day 31
  T/C: 190 % of control
dose: 1.0 mg/kg/injection, schedule: Q01DX009 (ip), vehicle: water, evaluated on day 32
  T/C: 140 and 205 % of control
dose: 1.0 mg/kg/injection, schedule: Q01DX009 (ip), vehicle: water, evaluated on day 33
  T/C: 100 % of control [4 of 6 alive]
dose: 1.0 mg/kg/injection, schedule: Q01DX009 (ip), vehicle: water, evaluated on day 60
  T/C: 154 % of control
dose: 2.0 mg/kg/injection, schedule: Q01DX009 (ip), vehicle: water, evaluated on day 28
  T/C: 145 % of control
dose: 2.0 mg/kg/injection, schedule: Q01DX009 (ip), vehicle: water, evaluated on day 30
  T/C: 139, 180 [5 of 6 alive], 182, 200, 216 % of control
dose: 2.0 mg/kg/injection, schedule: Q01DX009 (ip), vehicle: water, evaluated on day 31
  T/C: 209 % of control
dose: 2.0 mg/kg/injection, schedule: Q01DX009 (ip), vehicle: water, evaluated on day 32
  T/C: 154 and 160 % of control
dose: 2.0 mg/kg/injection, schedule: Q01DX009 (ip), vehicle: water, evaluated on day 33
  T/C: 131 % of control
dose: 2.0 mg/kg/injection, schedule: Q01DX009 (ip), vehicle: water, evaluated on day 60
  T/C: 166 % of control
dose: 4.0 mg/kg/injection, schedule: Q01DX009 (ip), vehicle: water, evaluated on day 28
  T/C: 190 % of control
dose: 4.0 mg/kg/injection, schedule: Q01DX009 (ip), vehicle: water, evaluated on day 30
  T/C: 117, 129, 180, 241 % of control
dose: 4.0 mg/kg/injection, schedule: Q01DX009 (ip), vehicle: water, evaluated on day 31
  T/C: 247 % of control [5 of 6 alive]
dose: 4.0 mg/kg/injection, schedule: Q01DX009 (ip), vehicle: water, evaluated on day 32
  T/C: 145 and 173 % of control
dose: 4.0 mg/kg/injection, schedule: Q01DX009 (ip), vehicle: water, evaluated on day 33
  T/C: 147 % of control [5 of 6 alive]
dose: 4.0 mg/kg/injection, schedule: Q01DX009 (ip), vehicle: water, evaluated on day 60
  T/C: 236 % of control
dose: 4.0 mg/kg/injection, schedule: Q01DX009 (ip), vehicle: water
  survivor count: 6 of 6
dose: 6.0 mg/kg/injection, schedule: Q01DX009 (ip), vehicle: water
  survivor count: 8 of 8
dose: 8.0 mg/kg/injection, schedule: Q01DX009 (ip), vehicle: water, evaluated on day 28
  T/C: 190 % of control
dose: 8.0 mg/kg/injection, schedule: Q01DX009 (ip), vehicle: water, evaluated on day 30
  T/C: 157 and 180 % of control
dose: 8.0 mg/kg/injection, schedule: Q01DX009 (ip), vehicle: water, evaluated on day 31
  T/C: 276 % of control
dose: 8.0 mg/kg/injection, schedule: Q01DX009 (ip), vehicle: water, evaluated on day 32
  T/C: 278 % of control
dose: 8.0 mg/kg/injection, schedule: Q01DX009 (ip), vehicle: water, evaluated on day 33
  T/C: 155 % of control
dose: 8.0 mg/kg/injection, schedule: Q01DX009 (ip), vehicle: water, evaluated on day 60
  T/C: 111 % of control
dose: 8.0 mg/kg/injection, schedule: Q01DX009 (ip), vehicle: water
  survivor count: 5 of 6 (2×) and 6 of 6
dose: 12.0 mg/kg/injection, schedule: Q01DX009 (ip), vehicle: water
  survivor count: 8 of 8
dose: 16.0 mg/kg/injection, schedule: Q01DX009 (ip), vehicle: water
  survivor count: 6 of 6
dose: 24.0 mg/kg/injection, schedule: Q04DX003 (ip), vehicle: saline
  survivor count: 6 of 6
dose: 30.0 mg/kg/injection, schedule: Q04DX003 (ip), vehicle: water
  survivor count: 6 of 8

## COc1ccc(/C=C(\C)[N+](=O)[O-])cc1OC
dose: 50.0 mg/kg/injection, schedule: Q01DX009 (ip), vehicle: other
  T/C: 125 % of control

## COc1c(Cl)cc2c(c1OC)N(C)C1N3C(=O)C4(C)SSC3(CC21O)C(=O)N4C (stereo unspecified)
dose: 0.12 mg/kg/injection, schedule: Q01DX009 (ip), vehicle: Klucel (hydroxypropylcellulose) (HPC)
  survivor count: 6 of 6
dose: 0.25 mg/kg/injection, schedule: Q01DX009 (ip), vehicle: Klucel (hydroxypropylcellulose) (HPC)
  survivor count: 6 of 6
dose: 0.5 mg/kg/injection, schedule: Q01DX009 (ip), vehicle: Klucel (hydroxypropylcellulose) (HPC)
  survivor count: 6 of 6
dose: 1.0 mg/kg/injection, schedule: Q01DX009 (ip), vehicle: Klucel (hydroxypropylcellulose) (HPC)
  T/C: 142 % of control

## CN=C1C=C(NC)C(F)(F)C1(F)F
dose: 50.0 mg/kg/injection, schedule: Q04DX003 (ip), vehicle: Klucel (hydroxypropylcellulose) (HPC)
  survivor count: 4 of 6

## OCC12COCN1COC2
dose: 200.0 mg/kg/injection, schedule: Q01DX009 (ip), vehicle: saline
  T/C: 130 % of control

## Cc1cc(C)c(C)c(C(O)(C(=O)O)c2ccccc2)c1 (stereo unspecified)
dose: 400.0 mg/kg/injection, schedule: Q01DX009 (ip), vehicle: saline with Tween-80
  survivor count: 3 of 6

## NNc1ncnc2c1ccn2C1OC(CO)C(O)C1O (stereo unspecified)
dose: 16.5 mg/kg/injection, schedule: Q01DX009 (ip), vehicle: saline with Tween-80
  T/C: 140 % of control
dose: 25.0 mg/kg/injection, schedule: Q01DX009 (ip), vehicle: saline with Tween-80
  T/C: 145 % of control
dose: 100.0 mg/kg/injection, schedule: Q01DX009 (ip), vehicle: saline with Tween-80
  survivor count: 0 of 6

## COC(=O)C(Sc1ccc(Cl)cc1)C1SC(=S)N(C)C1=O (stereo unspecified)
dose: 50.0 mg/kg/injection, schedule: Q01DX009 (ip), vehicle: saline with Tween-80
  T/C: 129 % of control

## CN(C)CCCn1c(=O)c2ccccc2c2ccccc21
dose: 100.0 mg/kg/injection, schedule: Q01DX010 (ip), vehicle: saline
  survivor count: 3 of 6

## O=S(=O)(NC1CCCCC1)c1ccccc1
dose: 200.0 mg/kg/injection, schedule: Q04DX003 (ip), vehicle: saline with Tween-80
  survivor count: 6 of 6

## ClC1OCCOC1Cl (stereo unspecified)
dose: 100.0 mg/kg/injection, schedule: Q01DX009 (ip), vehicle: saline
  survivor count: 6 of 6
dose: 200.0 mg/kg/injection, schedule: Q04DX003 (ip), vehicle: saline
  survivor count: 3 of 6

## COc1cc2c(cc1OC)C1CNC(=O)C1C(c1ccccc1)C2 (stereo unspecified)
dose: 100.0 mg/kg/injection, schedule: Q01DX001 (ip), vehicle: Klucel (hydroxypropylcellulose) (HPC)
  survivor count: 6 of 6
